{"source": "patent US20230181633A1", "about": "“METHODS OF TREATING CANCER USING A COMBINATION OF TUMOR MEMBRANE VESICLES AND METFORMIN” (METACLIPSE THERAPEUTICS CORPORATION, priority 2019, published 2023)", "tested_on": "4T1 mouse breast cancer cells", "assay": "4T1 tumor challenge, tumor growth over time", "assay_type": "in vivo", "conditions": "4T1-challenged mice, by about 4 weeks; MET 50 mg/kg in drinking water daily Day 3-30; TMV Days 3 and 10 (FIG. 1A)", "note": "Some of these results come from one statement about several compounds together.", "data": [{"smiles": "CN(C)C(=N)NC(=N)N", "note": "[MET, 3-(diaminomethylidene)-1,1-dimethylguanidine]", "values": [{"measurement": "tumor size", "result": "below 100 mm^2"}]}]}
